PubChem BioAssay AID540276 (National Center for Advancing Translational Sciences (NCATS), 2011)
In all, about 300,000 compounds went through this assay and about 5,400 (1.8%) were called active. Inconclusive means that the source gave no clear call. Such entries were picked first, then a sample of the others. Calls come from the whole dose curve; tested in HEK293 cells. A potency beside an inconclusive call is a rough fit, not a confirmed value.

assay: qHTS for inhibitors of binding or entry into cells for Marburg Virus; details: Marburg virus pseudotyped entry inhibition, cell reporter; activity change, negative = inhibition: at 37.8 µM (top of the series) unless noted
% is set by controls: 0 for no effect and ±100 for the full control effect; potency is the fitted concentration of half-maximal effect.

**Q.** With `CCOc1ccc(CC(=O)NCC(=O)NCc2cc(=O)n(C)c(=O)n2C)cc1` as the molecule, how does the Potency read?
**A.** inconclusive: 0.631 µM [activator, partial curve, poor fit]

**Q.** Which Potency does the source give for `O=S(=O)(NCCOc1ccccc1)c1ccc2ccccc2c1` here?
**A.** inconclusive: 2.31 µM [inhibitor, single point]

**Q.** Which Potency does the source give for `Cc1ccc(NC(=O)c2ccc3c(=O)n4c(nc3c2)CCCCC4)cc1F` here?
**A.** inconclusive: 35.5 µM [inhibitor, single point]

**Q.** Which Potency does the source give for `COc1cccc(C(=O)Nc2cc3c(cc2Cl)OCCCO3)c1` here?
**A.** inconclusive: 35.5 µM [inhibitor, single point]

**Q.** Which Potency does the source give for `COc1cccc(/C=C(/CC(=O)Nc2ccc(N3CCOCC3)cc2)c2nc3ccccc3s2)c1` here?
**A.** inconclusive: 0.112 µM [activator, full curve, poor fit]

**Q.** For `COc1ccc(OCC(=O)N/N=C/C(C)=C/c2ccco2)c(Br)c1`, which “activity change, negative = inhibition” value is on record?
**A.** inactive: -15% [at 46.1 µM]

**Q.** With `CCN1CCN(C(=O)/C=C/c2ccc(C)cc2)CC1` as the molecule, how does the Potency read?
**A.** inconclusive: 12.6 µM [activator, partial curve]

**Q.** Which “activity change, negative = inhibition” value does the source give for `COc1ccc(CNC(=O)CN2CCC(C(=O)c3ccc(OC)cc3)CC2)cc1` here?
**A.** inactive: -20.2%

**Q.** Which Potency does the source give for `CC(=O)c1ccc(OCc2ccc(C(=O)c3ccccc3)cc2)cc1` here?
**A.** inconclusive: 10 µM [inhibitor, partial curve, poor fit]

**Q.** For `COc1cc(CNc2ccc(C)c(C)c2)cc(OC)c1OC`, which Potency is on record?
**A.** inconclusive: 7.3 µM [inhibitor, partial curve, poor fit]

**Q.** With `Clc1ccc(-c2csc(N3CCSCC3)n2)cc1` as the molecule, how does the “activity change, negative = inhibition” value read?
**A.** inactive: -0.739%

**Q.** What does the source list for `CC(C)N(CCC(C(N)=O)(c1ccccc1)c1ccccn1)C(C)C` (stereo unspecified)?
**A.** Potency: inconclusive: 3.55 µM [inhibitor, partial curve, poor fit]; activity change, negative = inhibition: inconclusive: -45.1% [inhibitor]

**Q.** For `O=C1NC(=O)C(CCc2ccncc2)(Cc2cccc(Cl)c2Cl)C(=O)N1c1ccc(Br)cc1` (stereo unspecified), which Potency is on record?
**A.** inconclusive: 2.51 µM [inhibitor, single point]

**Q.** Which “activity change, negative = inhibition” value does the source give for `CCOC(=O)CSc1snnc1-c1ccccc1` here?
**A.** inactive: -1.98%

**Q.** With `Cc1c(NC(=S)N/N=C/c2ccc(N(C)C)cc2)c(=O)n(-c2ccccc2)n1C` as the molecule, how does the Potency read?
**A.** inconclusive: 20 µM [activator, partial curve, poor fit]

**Q.** For `Cc1ccc(NC(=O)Cc2coc3c(C)c(C)ccc23)c(C)c1`, which Potency is on record?
**A.** inconclusive: 1.41 µM [inhibitor, partial curve, poor fit]

**Q.** With `CSc1nccc(N/N=C/c2ccccc2)n1` as the molecule, how does the Potency read?
**A.** inconclusive: 0.355 µM [activator, full curve, poor fit]

**Q.** Which Potency does the source give for `COc1ccc(Sc2ccc(NC(=O)c3ccccc3Cl)cc2C#N)cc1` here?
**A.** inconclusive: 7.94 µM [inhibitor, partial curve]

**Q.** With `Fc1ccc2nc(Nc3nc4c(F)cccc4s3)sc2c1` as the molecule, how does the “activity change, negative = inhibition” value read?
**A.** inactive: -7.24%

**Q.** Which “activity change, negative = inhibition” value does the source give for `O=C(NCC(c1ccco1)N1CCOCC1)c1cccc(Cl)c1` (stereo unspecified) here?
**A.** inactive: -3.94% [at 46.1 µM]

**Q.** For `O=C(CC(C(=O)O)c1ccccc1)Nc1ccccc1` (stereo unspecified), which Potency is on record?
**A.** inconclusive: 14.1 µM [activator, single point]

**Q.** With `O=C(NCCC1=CCCCC1)c1cnccn1` as the molecule, how does the Potency read?
**A.** inconclusive: 2.24 µM [activator, full curve, poor fit]

**Q.** For `COc1ccc(/C=C2\SC(=O)N(CC(=O)NNC(=O)c3ccccc3O)C2=O)cc1`, which “activity change, negative = inhibition” value is on record?
**A.** inactive: 10.5%

**Q.** With `CCOC(=O)c1sc(NC(=O)CN2CCN(c3ccccc3)CC2)nc1C` as the molecule, how does the Potency read?
**A.** inconclusive: 35.5 µM [inhibitor, single point]

**Q.** With `COc1ccc(-n2ccc(=O)c(C(=O)O)n2)c(OC)c1` as the molecule, how does the “activity change, negative = inhibition” value read?
**A.** inactive: 9.33% [at 46.1 µM]

**Q.** Which Potency does the source give for `CC(=O)N[C@@H](CS)C(=O)O` here?
**A.** inconclusive: 23.1 µM [activator, single point]

**Q.** For `N#Cc1cc2c(nc1SCc1ccncc1)CCC2`, which Potency is on record?
**A.** inconclusive: 2.06 µM [activator, single point]

**Q.** Which Potency does the source give for `Cc1ccc(S(=O)(=O)N(Cc2ccc(F)cc2)Cc2ccco2)cc1` here?
**A.** inconclusive: 35.5 µM [inhibitor, single point]

**Q.** For `COc1ccc(Cl)cc1NC(=O)CN(C)C1CCCCC1`, which Potency is on record?
**A.** inconclusive: 35.5 µM [inhibitor, single point]

**Q.** Which “activity change, negative = inhibition” value does the source give for `COc1ccc(C2CC(c3ccccc3)=NN2C(=O)COC(=O)c2nc3nc(C)cc(C)n3n2)cc1` (stereo unspecified) here?
**A.** inactive: 22.8% [at 46.1 µM]

**Q.** With `COc1ccc(C)cc1NCC(=O)Nc1ccc(C(C)(C)C)cc1` as the molecule, how does the “activity change, negative = inhibition” value read?
**A.** inactive: -4.9%

**Q.** Which Potency does the source give for `O=C(O)C1C2CCC(O2)C1C(=O)Nc1ccc(Cl)cc1F` (stereo unspecified) here?
**A.** inconclusive: 39.8 µM [inhibitor, partial curve, poor fit]

**Q.** For `Cc1ccc(NC(=O)N2CCc3ccccc32)cc1C`, which Potency is on record?
**A.** inconclusive: 7.08 µM [activator, partial curve, poor fit]

**Q.** Which Potency does the source give for `CCSc1nnc(NC(=O)c2cccc(OCc3c(C)noc3C)c2)s1` here?
**A.** inconclusive: 8.2 µM [inhibitor, partial curve, poor fit]

**Q.** Which Potency does the source give for `CCOCCCNC(=O)C(C)NS(=O)(=O)c1ccc(C)cc1` (stereo unspecified) here?
**A.** inconclusive: 0.0073 µM [inhibitor, full curve, poor fit]

**Q.** For `CCS(=O)(=O)NCCCc1ccccc1`, which Potency is on record?
**A.** inconclusive: 6.51 µM [activator, single point]

**Q.** Which Potency does the source give for `Oc1ccccc1C=NNC(=S)NN=Cc1ccccc1O` here?
**A.** inconclusive: 3.16 µM [inhibitor, partial curve, poor fit]

**Q.** For `O=C1NC(=S)N(C(=O)c2ccc(F)cc2)/C1=C/c1ccccc1`, which Potency is on record?
**A.** inconclusive: 25.1 µM [inhibitor, single point]

**Q.** With `O=C(NN=C1CCCC1)C(=O)Nc1cccc(C(F)(F)F)c1` as the molecule, how does the Potency read?
**A.** inconclusive: 11.2 µM [activator, partial curve, poor fit]

**Q.** Which Potency does the source give for `Cc1csc2ncnc(N3CCN(C(=S)Nc4ccc(F)cc4F)CC3)c12` here?
**A.** inconclusive: 0.794 µM [inhibitor, single point]

**Q.** Which Potency does the source give for `Cc1ccc(CNC(=O)CN2C(=O)COc3ccc(S(=O)(=O)N4CCC(C)CC4)cc32)cc1` here?
**A.** inconclusive: 3.98 µM [inhibitor, full curve, poor fit]

**Q.** For `N#Cc1ccccc1COc1ccc(/C=C/C(=O)O)cc1`, which Potency is on record?
**A.** inconclusive: 0.631 µM [inhibitor, full curve, poor fit]

**Q.** With `N[C@H](Cc1ccc(N(CCCl)CCCl)cc1)C(=O)O` as the molecule, how does the Potency read?
**A.** active: 5.8 µM

**Q.** With `COc1ccc(CCNC(=O)c2cc(-c3ccc(C)cc3O)n[nH]2)cc1OC` as the molecule, how does the Potency read?
**A.** inconclusive: 35.5 µM [inhibitor, single point]

**Q.** Which “activity change, negative = inhibition” value does the source give for `COc1ccc(C(=O)c2ccc(N3CCN(C(=O)c4ccc(F)cc4)CC3)c(F)c2)cc1Br` here?
**A.** inactive: 6.83%

**Q.** For `O=C(c1ccco1)N(CCC(c1ccccc1)c1ccco1)Cc1ccccc1` (stereo unspecified), which Potency is on record?
**A.** inconclusive: 11.2 µM [inhibitor, partial curve, poor fit]

**Q.** For `O=C(c1cccc(C(F)(F)F)c1)C1CCCN(C(=O)C2CCOCC2)C1` (stereo unspecified), which “activity change, negative = inhibition” value is on record?
**A.** inactive: -28.8%

**Q.** With `Cc1noc(C)c1COc1ccc(C(=O)NNC(=O)c2ccccc2O)cc1` as the molecule, how does the Potency read?
**A.** inconclusive: 22.4 µM [inhibitor, single point]

**Q.** Which Potency does the source give for `O=C(N/N=C/c1ccsc1)c1ccccn1` here?
**A.** inconclusive: 10 µM [activator, partial curve, poor fit]

**Q.** For `O=C(NCc1ccccc1)c1ccc2c(=O)n3c(nc2c1)CCCCC3`, which Potency is on record?
**A.** inconclusive: 25.1 µM [inhibitor, single point]

**Q.** Which “activity change, negative = inhibition” value does the source give for `O=C(Nc1ccccc1)c1ccc(NCCc2ccccc2)c([N+](=O)[O-])c1` here?
**A.** inactive: 8.96%

**Q.** With `CCOC(=O)c1c(-c2ccccc2)nc2ccccn12` as the molecule, how does the “activity change, negative = inhibition” value read?
**A.** inactive: 3.21%

**Q.** With `C[C@@H]1CN=C(Nc2ccc(N(C)C)cc2)S1` as the molecule, how does the “activity change, negative = inhibition” value read?
**A.** inactive: 7.75%

**Q.** Which “activity change, negative = inhibition” value does the source give for `CSc1oc(-c2ccc(F)cc2)nc1S(=O)(=O)c1ccc(Br)cc1` here?
**A.** inactive: -10.9% [at 46.1 µM]

**Q.** For `Cc1[nH]c2ccccc2c1CCCNC1CCCCC1`, which Potency is on record?
**A.** inconclusive: 29.1 µM [inhibitor, single point]

**Q.** Which Potency does the source give for `CSc1nnc2n(C)c3c(c(=O)n12)C1(CCCC1)Cc1ccccc1-3` here?
**A.** inconclusive: 29.1 µM [inhibitor, single point]

**Q.** Which Potency does the source give for `COc1ccc2[nH]c(=O)c(C(=O)O)cc2c1` here?
**A.** inconclusive: 1.78 µM [inhibitor, partial curve, poor fit]

**Q.** Which Potency does the source give for `CC(=O)c1ccc(Nc2ccc(-c3ccccc3F)nn2)cc1` here?
**A.** inconclusive: 7.94 µM [inhibitor, partial curve, poor fit]

**Q.** With `Cc1cccc(-n2c(=O)c3c4c(sc3n3c(=S)[nH]nc23)CCC4)c1` as the molecule, how does the “activity change, negative = inhibition” value read?
**A.** inactive: 5.29% [at 46.1 µM]

**Q.** For `COC(=O)c1cccc(NC(=O)c2onc3c2CCCC3)c1`, which Potency is on record?
**A.** active: 9.2 µM

**Q.** For `CCCC(=O)NC(=S)Nc1ccc(NC(=O)c2cccs2)cc1`, which “activity change, negative = inhibition” value is on record?
**A.** inactive: 4.55%

**Q.** With `CCc1ccccc1NC(=O)c1ccc(-c2csc(C)n2)cc1` as the molecule, how does the Potency read?
**A.** inconclusive: 11.2 µM [inhibitor, partial curve]

**Q.** Which “activity change, negative = inhibition” value does the source give for `COc1ccc(OC)c(NC(=O)c2ccc(CSc3ncccn3)cc2)c1` here?
**A.** inactive: -0.862% [at 46.1 µM]

**Q.** Which Potency does the source give for `CCOc1ccc(Nc2c(S(=O)(=O)c3ccccc3)cnc3ccc(CC)cc23)cc1` here?
**A.** inconclusive: 25.1 µM [inhibitor, single point]

**Q.** With `Cc1[nH]c2ccccc2c1C(=O)C(C)OC(=O)c1ccc([N+](=O)[O-])o1` (stereo unspecified) as the molecule, how does the “activity change, negative = inhibition” value read?
**A.** inactive: -1.86% [at 46.1 µM]

**Q.** Which Potency does the source give for `COc1cccc(N2CCN(C(=O)Cn3ncc4c3-c3ccccc3OC4)CC2)c1` here?
**A.** inconclusive: 2.82 µM [activator, full curve, poor fit]

**Q.** Which Potency does the source give for `CC(C)CCNC(=O)c1ccc(NC(=O)N2CCCCc3ccccc32)cc1` here?
**A.** inconclusive: 5.62 µM [activator, single point]

**Q.** Which Potency does the source give for `CCOC(=O)N1CCC(Nc2nc3ccccc3nc2NS(=O)(=O)c2ccc(Cl)cc2)CC1` here?
**A.** inconclusive: 29.1 µM [inhibitor, single point]

**Q.** Which Potency does the source give for `COc1ccc(-n2c(C)cc(/C=C3\SC(=O)NC3=O)c2C)cc1` here?
**A.** inconclusive: 0.0891 µM [activator, partial curve, poor fit]

**Q.** Which Potency does the source give for `Cc1cc(Nc2nc3ccccc3nc2Cl)n(-c2ccccc2)n1` here?
**A.** inconclusive: 14.6 µM [inhibitor, partial curve]
